These are yes or no findings as the source states them, for the method shown. Binding seen in cells or lysates may run through a third protein. Here binding means that the protein was enriched with, or labelled near, the bait; the list need not be complete. Tags and fused reporters may be left off the sequences shown.
Target: T1, V5-SNX17 (sorting nexin 17) (UniProt Q15036)
T1 sequence: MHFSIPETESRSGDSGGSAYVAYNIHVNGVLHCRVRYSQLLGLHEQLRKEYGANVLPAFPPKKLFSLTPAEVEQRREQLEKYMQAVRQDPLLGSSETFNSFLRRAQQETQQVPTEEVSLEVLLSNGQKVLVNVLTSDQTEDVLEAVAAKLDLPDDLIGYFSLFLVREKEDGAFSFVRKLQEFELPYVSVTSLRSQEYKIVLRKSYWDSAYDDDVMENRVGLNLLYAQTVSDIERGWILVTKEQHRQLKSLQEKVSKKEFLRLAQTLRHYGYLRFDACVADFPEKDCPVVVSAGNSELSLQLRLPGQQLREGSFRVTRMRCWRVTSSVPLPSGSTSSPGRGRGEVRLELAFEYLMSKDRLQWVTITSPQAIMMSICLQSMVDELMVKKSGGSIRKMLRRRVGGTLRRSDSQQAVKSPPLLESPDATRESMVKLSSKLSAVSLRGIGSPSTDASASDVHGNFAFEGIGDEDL
Assay: affinity purification with mass spectrometry; IP with an antibody against the V5 tag from total protein lysates of MHCC-97H cells overexpressing V5-SNX17; LC-MS

- binding: binds
Substance: VPS26A (from UniProt O75436 1-327)

Source: paper PMC12035908
